Results are given in words; binding and its absence hold for the method and conditions named. For some of these results: A result given as binding can be weak or reduced; the word gives no strength. For some of these results: In cells and extracts the contact can be indirect. Each block holds one molecule with its values, some of them ahead of it.
Experiments:
[1] = target: T1, putative Atg17 (DDB_G0295673) (Dictyostelium discoideum) (UniProt B0G140); experiment: two-hybrid; pairwise analysis: atg genes in pACT2 and pLexA(1-202)+PL, S. cerevisiae TAT7
T1 sequence: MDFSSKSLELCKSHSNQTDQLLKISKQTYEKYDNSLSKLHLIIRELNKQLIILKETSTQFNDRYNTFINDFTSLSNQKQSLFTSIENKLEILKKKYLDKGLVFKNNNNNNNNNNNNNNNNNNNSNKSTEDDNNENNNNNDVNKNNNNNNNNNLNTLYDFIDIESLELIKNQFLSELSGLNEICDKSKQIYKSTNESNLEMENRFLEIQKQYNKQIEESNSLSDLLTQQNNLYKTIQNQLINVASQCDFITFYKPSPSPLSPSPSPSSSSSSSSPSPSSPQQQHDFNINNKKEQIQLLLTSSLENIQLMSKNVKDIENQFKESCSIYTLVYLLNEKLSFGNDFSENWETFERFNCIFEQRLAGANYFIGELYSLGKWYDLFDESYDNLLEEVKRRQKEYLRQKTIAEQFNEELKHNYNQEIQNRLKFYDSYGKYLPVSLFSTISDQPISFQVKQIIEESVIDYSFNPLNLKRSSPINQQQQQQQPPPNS

Protein sequences, listed by entry. Tags and fused reporters are not part of them. Lines headed by an entry give the natural chain unless they say otherwise; changes in a name come on top.
UniProt Q86CS2: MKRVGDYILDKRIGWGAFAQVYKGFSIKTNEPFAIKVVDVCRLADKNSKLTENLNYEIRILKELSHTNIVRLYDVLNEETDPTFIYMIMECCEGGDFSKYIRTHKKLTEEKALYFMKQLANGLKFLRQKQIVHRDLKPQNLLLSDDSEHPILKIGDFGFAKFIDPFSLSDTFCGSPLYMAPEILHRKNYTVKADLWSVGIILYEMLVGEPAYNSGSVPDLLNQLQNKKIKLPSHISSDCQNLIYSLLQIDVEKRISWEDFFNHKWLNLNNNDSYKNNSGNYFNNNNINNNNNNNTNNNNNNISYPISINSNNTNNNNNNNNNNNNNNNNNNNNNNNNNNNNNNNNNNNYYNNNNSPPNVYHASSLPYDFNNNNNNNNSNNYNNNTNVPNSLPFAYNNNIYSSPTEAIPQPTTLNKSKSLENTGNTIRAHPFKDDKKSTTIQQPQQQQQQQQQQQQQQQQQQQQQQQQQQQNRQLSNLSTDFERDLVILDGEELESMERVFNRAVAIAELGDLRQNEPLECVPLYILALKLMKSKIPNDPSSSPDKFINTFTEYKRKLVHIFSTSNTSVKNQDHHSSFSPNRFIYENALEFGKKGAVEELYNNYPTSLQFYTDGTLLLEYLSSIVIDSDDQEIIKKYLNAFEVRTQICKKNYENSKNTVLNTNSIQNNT
UniProt Q556J0: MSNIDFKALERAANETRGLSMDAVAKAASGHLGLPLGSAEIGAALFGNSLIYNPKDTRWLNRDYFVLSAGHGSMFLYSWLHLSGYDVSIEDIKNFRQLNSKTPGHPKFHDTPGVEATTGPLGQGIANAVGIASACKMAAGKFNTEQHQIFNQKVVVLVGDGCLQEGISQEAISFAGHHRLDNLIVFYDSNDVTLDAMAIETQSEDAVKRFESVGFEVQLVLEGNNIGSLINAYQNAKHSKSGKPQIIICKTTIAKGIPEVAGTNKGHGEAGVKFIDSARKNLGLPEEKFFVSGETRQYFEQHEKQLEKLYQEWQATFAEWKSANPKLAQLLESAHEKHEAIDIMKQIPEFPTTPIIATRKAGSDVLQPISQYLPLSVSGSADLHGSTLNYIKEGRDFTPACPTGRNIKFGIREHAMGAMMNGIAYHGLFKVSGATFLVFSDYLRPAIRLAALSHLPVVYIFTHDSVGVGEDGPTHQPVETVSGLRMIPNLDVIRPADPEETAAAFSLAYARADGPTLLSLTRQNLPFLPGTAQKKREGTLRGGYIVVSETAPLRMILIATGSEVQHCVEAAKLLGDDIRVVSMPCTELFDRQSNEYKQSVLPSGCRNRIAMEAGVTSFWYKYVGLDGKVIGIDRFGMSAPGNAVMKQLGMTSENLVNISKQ

[2] = target: GFP-Atg1 (Dictyostelium discoideum) (UniProt Q86CS2); experiment: pull-down; GFP-trap beads on extracts of Dictyostelium cells co-expressing the GFP- and HA-tagged proteins; 10 mM Tris/HCl pH 7.5, 150 mM NaCl, 0.5 mM EDTA, overnight at 4°C; anti-HA Western blot
[3] = target: Atg16 (Dictyostelium discoideum); experiment: two-hybrid; pairwise analysis: atg genes in pACT2 and pLexA(1-202)+PL, S. cerevisiae TAT7
[4] = target: Atg101 (DDB_G0288287) (Dictyostelium discoideum) (UniProt Q54J54); experiment: as above

Molecule: TKT fused with the HA epitope (TKT-HA) (from UniProt Q556J0) (enzyme)
binding [2]: binds

B1: Atg5 (protein, UniProt Q54GT9 1-398)
chain: MSSFDEDIKRSIWEGKIPIVFTLSPDDLTSHLSPSPYTLMAPRNSYFPLITSLVKDYFSSSTLVLLDEMWLEYRGIPLKWHLPIGVLYDTIVGNNNCNNSNNNNNNNNNNNNNNNNNNNNNNNNNNNNNNNNNNNNNNNNNNNNNNNIIMEQPYWNIVVHFQSYPDRILLRCPNIESVRTYYKNVLKEANFIKQGDITKINNLNINQSNDLWDGLKSHDYDKFWSVNKKLIPNSNKEYKNIPIRLIINYKPPIQELIPVFDENLVELTLENLFSRIPYESFSNFLNYNNNNNNNNINNNSPPLSPNSNNNNNNNNVDNSIENSLNQTNVESAEPEFSNLLQYIKATNAEYKIQGIQPSLKSSAVWLYEHFGHPDNFLYIVLIDPSQNNNNNNNNSNNY
binding [3]: binds

More lines, now with the values ahead:

binding [1]: no binding
Molecule: putative FIP200, renamed AreB (DDB_G0268498) (Dictyostelium discoideum)

binding [4]: no binding
B2: putative Atg17 (DDB_G0295673) (protein, UniProt B0G140 1-488)
chain: MDFSSKSLELCKSHSNQTDQLLKISKQTYEKYDNSLSKLHLIIRELNKQLIILKETSTQFNDRYNTFINDFTSLSNQKQSLFTSIENKLEILKKKYLDKGLVFKNNNNNNNNNNNNNNNNNNNSNKSTEDDNNENNNNNDVNKNNNNNNNNNLNTLYDFIDIESLELIKNQFLSELSGLNEICDKSKQIYKSTNESNLEMENRFLEIQKQYNKQIEESNSLSDLLTQQNNLYKTIQNQLINVASQCDFITFYKPSPSPLSPSPSPSSSSSSSSPSPSSPQQQHDFNINNKKEQIQLLLTSSLENIQLMSKNVKDIENQFKESCSIYTLVYLLNEKLSFGNDFSENWETFERFNCIFEQRLAGANYFIGELYSLGKWYDLFDESYDNLLEEVKRRQKEYLRQKTIAEQFNEELKHNYNQEIQNRLKFYDSYGKYLPVSLFSTISDQPISFQVKQIIEESVIDYSFNPLNLKRSSPINQQQQQQQPPPNS

From PMC4554924
